Data as given in patent publication US20250243271A1.
Results are given in words; binding and its absence hold for the method and conditions named. Some binding calls cover weakened binding; strength is not graded here.

Chains of the proteins cited; added tags and fusions are not shown. Lines headed by an entry give the natural chain unless they say otherwise; changes in a name come on top.
UniProt Q99466: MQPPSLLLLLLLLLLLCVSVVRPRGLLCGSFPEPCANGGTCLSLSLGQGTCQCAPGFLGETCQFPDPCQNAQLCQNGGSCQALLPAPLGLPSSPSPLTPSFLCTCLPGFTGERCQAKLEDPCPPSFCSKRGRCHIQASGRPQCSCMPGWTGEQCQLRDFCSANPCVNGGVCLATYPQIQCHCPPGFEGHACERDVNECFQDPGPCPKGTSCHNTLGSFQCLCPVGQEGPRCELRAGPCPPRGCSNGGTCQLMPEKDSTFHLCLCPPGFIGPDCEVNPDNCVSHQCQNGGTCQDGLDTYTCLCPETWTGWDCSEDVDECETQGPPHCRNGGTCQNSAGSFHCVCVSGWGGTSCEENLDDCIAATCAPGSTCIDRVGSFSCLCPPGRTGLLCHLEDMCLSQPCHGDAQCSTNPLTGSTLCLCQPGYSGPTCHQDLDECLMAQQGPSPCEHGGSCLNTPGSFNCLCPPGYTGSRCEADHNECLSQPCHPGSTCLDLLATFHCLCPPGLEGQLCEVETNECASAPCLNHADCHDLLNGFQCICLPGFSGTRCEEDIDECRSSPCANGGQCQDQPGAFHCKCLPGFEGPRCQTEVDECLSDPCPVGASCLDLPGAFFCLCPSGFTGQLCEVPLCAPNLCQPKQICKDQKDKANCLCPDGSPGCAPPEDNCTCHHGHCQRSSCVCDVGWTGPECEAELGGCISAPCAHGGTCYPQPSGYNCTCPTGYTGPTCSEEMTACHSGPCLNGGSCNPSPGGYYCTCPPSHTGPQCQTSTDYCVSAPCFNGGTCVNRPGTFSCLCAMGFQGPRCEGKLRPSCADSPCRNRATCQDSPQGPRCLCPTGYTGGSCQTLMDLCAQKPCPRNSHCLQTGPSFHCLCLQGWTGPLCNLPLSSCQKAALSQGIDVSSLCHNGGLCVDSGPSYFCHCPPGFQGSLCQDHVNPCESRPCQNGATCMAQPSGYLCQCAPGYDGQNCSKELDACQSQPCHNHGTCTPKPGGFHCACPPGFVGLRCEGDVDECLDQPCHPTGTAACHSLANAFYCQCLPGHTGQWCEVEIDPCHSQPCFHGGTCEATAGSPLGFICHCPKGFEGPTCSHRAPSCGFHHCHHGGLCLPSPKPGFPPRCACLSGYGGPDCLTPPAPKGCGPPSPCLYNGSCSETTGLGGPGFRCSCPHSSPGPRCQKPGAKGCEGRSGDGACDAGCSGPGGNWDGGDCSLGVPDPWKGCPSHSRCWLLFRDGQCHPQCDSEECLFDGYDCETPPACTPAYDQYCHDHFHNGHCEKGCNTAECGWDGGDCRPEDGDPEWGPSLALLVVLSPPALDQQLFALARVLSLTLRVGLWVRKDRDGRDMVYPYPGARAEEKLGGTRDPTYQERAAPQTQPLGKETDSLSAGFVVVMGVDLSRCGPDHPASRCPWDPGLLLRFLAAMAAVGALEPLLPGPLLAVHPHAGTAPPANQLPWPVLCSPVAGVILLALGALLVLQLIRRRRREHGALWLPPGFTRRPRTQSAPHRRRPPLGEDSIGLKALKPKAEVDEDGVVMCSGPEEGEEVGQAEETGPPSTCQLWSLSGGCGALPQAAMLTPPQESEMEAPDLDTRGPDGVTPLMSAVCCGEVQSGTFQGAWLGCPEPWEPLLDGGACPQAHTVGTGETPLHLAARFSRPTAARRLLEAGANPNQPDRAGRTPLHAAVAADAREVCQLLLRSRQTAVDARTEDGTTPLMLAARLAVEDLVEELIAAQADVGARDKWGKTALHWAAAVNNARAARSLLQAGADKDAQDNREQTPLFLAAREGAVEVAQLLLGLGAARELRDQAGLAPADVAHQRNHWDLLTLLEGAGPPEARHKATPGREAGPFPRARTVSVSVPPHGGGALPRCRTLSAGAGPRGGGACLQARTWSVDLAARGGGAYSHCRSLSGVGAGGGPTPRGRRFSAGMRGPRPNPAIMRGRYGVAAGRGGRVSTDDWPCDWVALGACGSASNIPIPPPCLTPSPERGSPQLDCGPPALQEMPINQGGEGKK

What was measured:
[1] = biological target: Recombinant human Notch4 (human) (UniProt Q99466); assay: ELISA, absorbance at 450 nm
[2] = biological target: Recombinant human Notch4 (human) (UniProt Q99466); assay: competition ELISA on Notch4 with or without MHN4-2, absorbance at 450 nm
[3] = biological target: Recombinant human Notch4 (human) (UniProt Q99466); assay: ELISA, absorbance at 450 nm, single condition, antibody concentration not given
[4] = biological target: Recombinant human Notch4 (human) (UniProt Q99466); assay: competition (epitope binning) ELISA on Notch4 antigen with or without the mouse antibody MHN4-2, absorbance at 450 nm

binding [1]: binds
binding [2]: binds
binding [3]: binds
binding [4]: binds
B1: H07-Lib3-Pl1 (antibody, V domains shown)
VH: EVQLVESGGGLVQPGGSLRLSCAASGLPFSSYAMSWVRQAPGKGLELVASIGTAGDAYYPDSVKGRFTISRDNAKNSLYLQMNSLRAEDTAVYYCARVGPFWQGFAFDIWGQGTMVTVSS
VL: DIVMTQSPLSLPVTPGEPASISCRSSQSLLHSSGHNYLHWYLQKPGQSPQLLIYMTYNRASGVPDRFSGSGSGTDFTLKISRVEAEDVGVYYCLQTTHWPHTFGGGTKVEIK
